Test results as given in patent US20170362317A1.
Substitutions are numbered along the chain they refer to. No constants are given. Whether binding was seen depends on the method and setting. Some entries that bind do so weakly or less than the wild type.

Chains of the proteins cited; added tags and fusions are not shown. Residues count along the entry.
UniProt P05231, residues 30-212: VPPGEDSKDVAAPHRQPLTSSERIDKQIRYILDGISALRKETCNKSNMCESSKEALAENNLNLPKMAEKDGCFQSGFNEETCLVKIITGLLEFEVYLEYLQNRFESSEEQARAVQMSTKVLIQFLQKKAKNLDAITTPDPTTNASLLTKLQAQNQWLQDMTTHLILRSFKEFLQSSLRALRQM

B1: Ag1-4-6 (fully human anti-IL6 IgG1 antibody) (antibody, V domains shown)
VH: EVQLVESGPALVKPTQTLTLTCTFSGFSLSTGGMSVSWIRQPPGKALEWLARIDWDDDKFYTPSLKTRLTISRDTSKNQVVLIMTNMDPVDTATYYCARMHIDDSNGYYSDAFHIWGQGTMVTVSS
VL: EIVLTQSPATLSVSPGERVTLSCRDSQSVSSTSLAWYQQKSGQAPRLLIYDTSNRATGIPARFSGGGSGTDFTLTISSLEPEDFAVYYCSFVSRPYPRFTFGQGTKVEIK
B2: Ag1-4-6 (FB704) phage-displayed scFv clone (scFv, V domains shown)
VH: B1 VH
VL: B1 VL
B3: Hag1T-3-10 phage-displayed scFv clone (scFv, V domains shown)
VH: B1 VH with Y109F
VL: B1 VL
B4: 1-4-62 (fully human anti-IL6 IgG1 antibody) (antibody, V domains shown)
VH: B1 VH
VL: B1 VL with S90L, F91V, V92R, S93N, R94N, P95W, Y96P
B5: HAg1T-3-10 (fully human anti-IL6 IgG1 antibody) (antibody, V domains shown)
VH: B1 VH with Y109F
VL: B1 VL

Assays:
[1] = target: recombinant human interleukin-6 (IL6) (human) (UniProt P05231); assay: ELISA, cytokine coated on plate
[2] = target: recombinant human interleukin-6 (IL6) (human) (UniProt P05231); assay: ELISA, plate coated with recombinant human IL6 at 2 µg/ml, FB704 in four-fold serial dilutions from 2 µg/ml, HRP-labeled goat anti-human IgG, A450 [Cont'd) B]
[3] = target: recombinant human interleukin-6 (IL6) (human) (UniProt P05231); assay: ELISA, plate coated with recombinant human IL6 at 2 µg/ml, FB704 in four-fold serial dilutions from 2 µg/ml, HRP-labeled goat anti-human IgG, A450
[4] = target: recombinant human interleukin-6 (IL6) (human) (UniProt P05231); assay: ELISA on coated IL6 and western blot, whole human IgG1
[5] = target: recombinant human interleukin-6 (IL6) (human) (UniProt P05231); assay: biopanning and ELISA of phage-displayed scFv clones on coated recombinant IL6

Binder	binding [4]	binding [5]	further results
B1	binds	–	binding [1]: binds; binding [2]: binds; binding [3]: binds
B2	–	binds	–
B3	–	binds	–
B4	binds	–	–
B5	binds	–	–
